No constants are given. Whether binding was seen depends on the method and setting. Some binding calls cover weakened binding; strength is not graded here.
Target: NRPE1, the largest subunit of Pol V, 3xFLAG-10xHis-tagged (Arabidopsis thaliana) (UniProt Q5D869)
Assay: co-purification with 3xFLAG-10xHis-NRPE1, subunits seen in the cryo-EM map; Pol V purified by anti-FLAG resin, Capto Q and Superose 6 from T87 cells; the subunits present are told from the cryo-EM maps

The chains behind the UniProt entries cited, without tags or fusion partners.
UniProt Q5D869: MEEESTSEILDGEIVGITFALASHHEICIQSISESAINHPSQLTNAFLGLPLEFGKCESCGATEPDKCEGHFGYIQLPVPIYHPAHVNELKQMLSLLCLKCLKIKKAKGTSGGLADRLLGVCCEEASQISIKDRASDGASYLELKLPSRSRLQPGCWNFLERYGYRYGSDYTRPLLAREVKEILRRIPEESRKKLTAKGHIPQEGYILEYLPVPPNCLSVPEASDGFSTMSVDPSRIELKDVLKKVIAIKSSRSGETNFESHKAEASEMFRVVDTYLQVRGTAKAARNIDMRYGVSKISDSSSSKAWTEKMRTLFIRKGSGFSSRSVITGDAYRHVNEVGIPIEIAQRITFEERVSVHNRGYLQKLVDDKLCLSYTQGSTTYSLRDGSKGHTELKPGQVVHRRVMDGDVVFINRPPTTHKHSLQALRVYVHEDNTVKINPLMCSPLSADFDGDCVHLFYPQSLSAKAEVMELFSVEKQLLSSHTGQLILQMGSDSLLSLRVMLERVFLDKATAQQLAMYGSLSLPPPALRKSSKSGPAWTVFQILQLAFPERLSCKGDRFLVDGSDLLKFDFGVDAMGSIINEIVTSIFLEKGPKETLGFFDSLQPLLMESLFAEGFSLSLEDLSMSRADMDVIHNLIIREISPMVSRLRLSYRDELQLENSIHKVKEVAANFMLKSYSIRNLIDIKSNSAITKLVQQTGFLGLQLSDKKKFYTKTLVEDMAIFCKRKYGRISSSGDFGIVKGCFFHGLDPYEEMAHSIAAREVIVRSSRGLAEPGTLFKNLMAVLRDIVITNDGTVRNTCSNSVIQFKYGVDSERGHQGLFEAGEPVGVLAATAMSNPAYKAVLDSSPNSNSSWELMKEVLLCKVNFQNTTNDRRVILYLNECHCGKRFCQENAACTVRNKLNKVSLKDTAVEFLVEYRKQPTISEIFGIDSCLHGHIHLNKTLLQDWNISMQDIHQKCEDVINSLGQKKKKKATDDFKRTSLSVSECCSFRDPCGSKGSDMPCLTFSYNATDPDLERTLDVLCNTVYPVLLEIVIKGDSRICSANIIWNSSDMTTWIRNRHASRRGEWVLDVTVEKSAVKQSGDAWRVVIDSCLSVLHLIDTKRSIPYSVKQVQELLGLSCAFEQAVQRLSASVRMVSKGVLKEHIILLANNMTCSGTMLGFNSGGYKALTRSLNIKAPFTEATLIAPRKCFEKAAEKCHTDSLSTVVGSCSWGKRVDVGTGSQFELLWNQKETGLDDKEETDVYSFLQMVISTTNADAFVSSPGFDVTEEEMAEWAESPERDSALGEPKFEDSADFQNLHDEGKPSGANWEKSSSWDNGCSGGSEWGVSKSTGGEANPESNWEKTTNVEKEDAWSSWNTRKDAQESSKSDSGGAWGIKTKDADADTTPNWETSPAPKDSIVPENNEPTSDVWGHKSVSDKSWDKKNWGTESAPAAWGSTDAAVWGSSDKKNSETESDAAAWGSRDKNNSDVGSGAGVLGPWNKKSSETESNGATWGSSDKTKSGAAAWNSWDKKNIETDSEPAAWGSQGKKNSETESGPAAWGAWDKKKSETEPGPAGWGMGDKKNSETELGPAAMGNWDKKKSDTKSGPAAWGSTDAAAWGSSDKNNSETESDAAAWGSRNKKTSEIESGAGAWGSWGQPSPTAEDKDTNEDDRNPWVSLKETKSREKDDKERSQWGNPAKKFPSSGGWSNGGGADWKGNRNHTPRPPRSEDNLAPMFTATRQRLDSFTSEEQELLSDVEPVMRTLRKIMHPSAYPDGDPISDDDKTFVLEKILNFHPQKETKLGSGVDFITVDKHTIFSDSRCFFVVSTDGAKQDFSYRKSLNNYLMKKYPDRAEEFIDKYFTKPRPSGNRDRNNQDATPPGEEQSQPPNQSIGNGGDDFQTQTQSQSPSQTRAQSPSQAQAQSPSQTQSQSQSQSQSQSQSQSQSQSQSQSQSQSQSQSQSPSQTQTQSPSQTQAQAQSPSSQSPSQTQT
UniProt Q8LFJ6: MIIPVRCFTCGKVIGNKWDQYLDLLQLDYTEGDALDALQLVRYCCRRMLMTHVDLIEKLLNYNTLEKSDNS
UniProt Q9FLM8: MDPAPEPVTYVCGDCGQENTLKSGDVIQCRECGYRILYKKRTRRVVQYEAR

Row | binding | Substance
1 | binds | NRP(A/B/C/D/E)10 (from UniProt Q8LFJ6 1-71)
2 | binds | NRP(A/B/C/D/E)12 (from UniProt Q9FLM8 1-51)

Source: publication PMC10229537
